Inconclusive means that the source gave no clear call. Such entries were picked first, then a sample of the others. Where the call is inconclusive, the potency comes from a doubtful curve fit. Active and inactive are the calls of the source. Calls come from the whole dose curve; as a rule, active = well fitted cell-killing curve with a large enough effect; inconclusive = small, poorly fitted or top-dose-only effect, or effect the other way; inactive = no such curve, though single readings can be large or run the other way.
Test: Quantitative highthroughput screen to assess conditional lethalithy of SEM cells grown in RPMI1640 with dialyzed fetal bovine serum (RPMI+ds) (AID 1963884); note: nearly all actives have a fitted effect of over 35% in size
Conditions: SEM B-ALL cells, RPMI+dialyzed FBS, CellTiter-Glo viability, 48 h; viability: at 45.8 µM (top of the series)
Text: Assay Provider: Jason Cantor Ph.D.
Department of Biochemistry
University of Wisconsin-Madison, Madison, WI, USA
Chemical screening studies have identified drug sensitivities across hundreds of cancer cell lines but most putative therapeutics fail to translate. Discovery and development of drug candidates in models that more accurately reflect nutrient levels in human blood is a major challenge. Here we performed high-throughput screens in conventional versus Human Plasma-Like Medium (HPLM) to identify compounds that were "missed" when screening using the artificial culture condition. Sets of conditional anticancer compounds spanned phases of clinical development and included non-oncology drugs were assessed. […] We also traced conditional phenotypes for several chemotherapeutics to availability of HPLM-specific metabolites and confirmed others for compounds whose reported targets are encoded by nonessential genes. Our findings establish generalizable strategies for exploiting conditional lethality in HPLM to reveal therapeutic candidates and mechanisms of action in cancer cells.
Described herein are the results of each viability screens against three cell lines: NOMO1 (an acute myeloid leukemia cell line); P12-Ichikawa (a T-cell acute lymphoblastic leukemia); and SEM (a B-cell ALL). Each assay was screened using 3 different cell culture media: homemade human plasma-Like medium with 10% dialyzed fetal bovine serum (HPLM+ds); RPMI1640 with 10% untreated FBS and 5mM glucose (RPMI+s); and RPMI1640 with 10% dialyzed fetal bovine serum and 5 mM glucose (RPMI+ds).
PROTOCOL TABLE (as described by Inglese J, Shamu CE and Guy RK. 2007)
SEQUENCE No. (e.g., 1, 2, 3, etc.); […] (e.g., Cells, Incubation, Reagent, etc.); VALUE and DESCRIPTION.
1; Cells; 5 uL; white, solid bottom 1536-well Greiner assay plate.
2; Compounds; 23 nL; Kalypsis pin tool (Wako USA) equipped with a 1536-well pin head to transfer to the assay plates.
3; Incubation; 48 hours; 37C incubation.
4; Reagent; 3 uL; CellTiter Glo (Promega).
5; Incubation; 5 min, room temperature
6; Detection; Luminescence, Viewlux PerkinElmer.
NOTES (numbers refer to Sequence numbers above)
1. Briefly, 5 ul of cell reagent was dispensed using a Multidrop Combi Dispenser. The NOMO1 and SEM cells were plated at 500 cells/well and the P12-Ichikawa line at 1000 cells/well.
2. After seeding the cells, 23 nL of MIPE 4.1 library compounds (in DMSO) were added to each plate using a Kalypsys 1536 Pintool dispenser. Bortezomib at final concentration of […] and DMSO were added to each plate as positive and negative controls respectively. For each screen, MIPE 4.1 compounds were added over an eleven-point concentration range […] in 3-fold dilutions.
3. Each plate was covered with a stainless steel gasketed lid to prevent evaporation and incubated for 48 hour at 37C, 95% relative humidity, and 5% CO2.
4-5. Three microliter CellTilter-GloTM luminescent substrate mix (Promega) reagent was added to the assay plate and incubated at room temperature for 5 min.
6. The luminescence signal was measured using a ViewLux (PerkinElmer) multiplate reader with a 2 second exposure time per plate. Data for each compound were normalized as percent viability such that measurements for DMSO and the empty well controls in each plate were defined as 100% and 0%, respectively.
Potency is the fitted concentration of half-maximal effect.

Q: Which Potency does the source give for N#Cc1c(C2CCNCC2)cc(-c2c(O)cccc2OCC2CC2)nc1N here?
A: The Potency was inconclusive: 16.6 µM [cytotoxic, partial curve].

Q: For Nc1ccn([C@@H]2O[C@H](CO)[C@@H](O)C2O)c(=O)n1 (stereo not given in full), which Potency is on record?
A: The Potency was inconclusive: 33.2 µM [cytotoxic, single point].

Q: For CC(C)C(=O)Nc1ccc([N+](=O)[O-])c(C(F)(F)F)c1, which Potency is on record?
A: Its Potency is “inactive”.

Q: For CN(C)CC=CC(=O)Nc1cc2c(Nc3ccc(F)c(Cl)c3)ncnc2cc1O[C@H]1CCOC1, which Potency is on record?
A: Its Potency is active: 1.18 µM.

Q: With CC[C@H](C)C(=O)O[C@H]1C[C@@H](C)C=C2C=C[C@H](C)[C@H](CC[C@@H]3C[C@@H](O)CC(=O)O3)[C@H]21 as the molecule, how does the Potency read?
A: Its Potency is “inactive”.

Q: Which Potency does the source give for CN(C)[C@@H](CCOc1cccc2ccccc12)c1ccccc1 here?
A: Its Potency is “inactive”.

Q: With CCN(CCO)CCCC(C)Nc1ccnc2cc(Cl)ccc12 (stereo not given) as the molecule, how does the Potency read?
A: Its Potency is inconclusive: 0.264 µM [cytotoxic, full curve, poor fit].

Q: For c1cc(-c2cnn3cc(-c4ccc(OCCN5CCCCC5)cc4)cnc23)ccn1, which Potency is on record?
A: The Potency was “inactive”.

Q: For C#Cc1cccc(Nc2ncnc3cc(OCCOC)c(OCCO)cc23)c1, which Potency is on record?
A: Its Potency is inconclusive: 18.7 µM [cytotoxic, partial curve].

Q: For O=C1c2ccccc2-c2n[nH]c3cccc1c23, which Potency is on record?
A: Its Potency is inconclusive: 16.6 µM [cytotoxic, partial curve, poor fit].

Q: For CC1(C)Cc2c(sc(NC(=S)NC(=O)c3ccccc3)c2C(=O)O)CO1, which Potency is on record?
A: Its Potency is “inactive”.

Q: Which Potency does the source give for CCOc1ccc(Nc2nc(-c3c(C)nc4ccccn34)cs2)cc1 here?
A: The Potency was active: 0.105 µM.

Q: For CCOC(=O)[C@@]1(CCCCCCOc2ccc(Cl)cc2)CO1, which Potency is on record?
A: Its Potency is inconclusive: 14.8 µM [cytotoxic, partial curve].

Q: For Cc1ccc(NC(=O)Nc2cc(C(F)(F)F)ccc2F)cc1Nc1ccc2c(c1)NC(=O)C2=Cc1ccc[nH]1, which Potency is on record?
A: Its Potency is active: 16.6 µM.

Q: Which Potency does the source give for N#Cc1ccc(NC(=O)Nc2ccccc2Br)c2n[nH]nc12 here?
A: The Potency was “inactive”.

Q: For COc1ccc2c(c1)c(C1=C(c3c[nH]c4ccccc34)C(=O)NC1=O)cn2CCCN(C)C, which Potency is on record?
A: Its Potency is inconclusive: 16.6 µM [cytotoxic, partial curve, poor fit].

Q: For NC(=O)c1ccc2[nH]ccc2c1, which Potency is on record?
A: Its Potency is active: 18.7 µM.

Q: For N#Cc1ccnc(N2C(=O)CC[C@H]2C(=O)N(c2cncc(F)c2)[C@H](C(=O)NC2CC(F)(F)C2)c2ccccc2Cl)c1, which Potency is on record?
A: The Potency was active: 3.31 µM.

Q: Which Potency does the source give for CCOC(=O)N[C@@H]1CC[C@@H]2[C@@H](C1)C[C@H]1C(=O)O[C@H](C)[C@H]1[C@@H]2C=Cc1ccc(-c2cccc(F)c2)cn1 here?
A: Its Potency is inconclusive: 37.2 µM [cytotoxic, single point].

Q: Which Potency does the source give for CC(C)(C)NC(=O)[C@H]1CN(Cc2cccnc2)CCN1C[C@@H](O)C[C@@H](Cc1ccccc1)C(=O)N[C@H]1c2ccccc2C[C@H]1O here?
A: Its Potency is inconclusive: 16.6 µM [cytotoxic, partial curve].

Q: For CCNC(=O)Nc1ccc2ncc(Nc3ccc(C)cc3)nc2n1, which Potency is on record?
A: Its Potency is inconclusive: 26.4 µM [cytotoxic, partial curve, poor fit].

Q: For Nc1ncnc2c1c(-c1cccc(OCc3ccccc3)c1)cn2C1CC(CN2CCCC2)C1 (stereo not given), which Potency is on record?
A: The Potency was inconclusive: 7.43 µM [cytotoxic, partial curve].

Q: With COC[C@@H](c1ccc(C(F)(F)F)cc1)N1CCN(C2(C)CCN(C(=O)c3c(C)ncnc3C)CC2)C[C@H]1C as the molecule, how does the Potency read?
A: The Potency was inconclusive: 37.2 µM [cytotoxic, single point].

Q: For COC1=C(OC)C(=O)C(CC=C(C)CCC=C(C)CCC=C(C)CCC=C(C)CCC=C(C)CCC=C(C)CCC=C(C)CCC=C(C)CCC=C(C)CCC=C(C)C)=C(C)C1=O, which Potency is on record?
A: Its Potency is “inactive”.

Q: Which Potency does the source give for COc1ccc2c(c1)CC[C@H]1[C@@H]2CC[C@]2(C)[C@@H](NCCCCCCN3C(=O)C=CC3=O)CC[C@H]12 here?
A: The Potency was “inactive”.

Q: With C[C@H]1O[C@@H](n2cc(F)c(=O)[nH]c2=O)[C@H](O)[C@H]1O as the molecule, how does the Potency read?
A: The Potency was inconclusive: 16.6 µM [cytotoxic, partial curve].

Q: For CN(c1nccc(=O)[nH]1)C1CCN(c2nc3ccccc3n2Cc2ccc(F)cc2)CC1, which Potency is on record?
A: Its Potency is “inactive”.

Q: For CN(C)CCN(Cc1ccc(Cl)cc1)c1ccccn1, which Potency is on record?
A: Its Potency is “inactive”.

Q: Which Potency does the source give for O=C(O)c1cccnc1 here?
A: The Potency was active: 2.96 µM.

Q: With COc1cc(OC)cc(-c2ccc3ncc4ccc(=O)n(-c5ccc(N6CCNCC6)c(C(F)(F)F)c5)c4c3c2)c1 as the molecule, how does the Potency read?
A: Its Potency is inconclusive: 16.6 µM [cytotoxic, partial curve].

Q: Which Potency does the source give for CN1CCN(c2cccc(Nc3nc4c(-c5ccc(S(C)(=O)=O)cc5)cccn4n3)c2)CC1 here?
A: Its Potency is inconclusive: 1.66 µM [cytotoxic, full curve].

Q: With CCOc1cc(C=C2C(=O)N(c3ccccc3)N=C2C)cc(Cl)c1OCC(=O)OC as the molecule, how does the Potency read?
A: Its Potency is inconclusive: 13.2 µM [cytotoxic, partial curve, poor fit].

Q: With Cc1ccc(S(=O)(=O)N[C@@H](Cc2ccccc2)C(=O)CCl)cc1 as the molecule, how does the Potency read?
A: Its Potency is inconclusive: 33.2 µM [cytotoxic, single point].

Q: For C=C1C(=CC=C2CCCC3(C)[C@@H]([C@H](C)C=CC=CC(O)(CC)CC)CC[C@@H]23)C[C@@H](O)C[C@@H]1O (stereo not given in full), which Potency is on record?
A: The Potency was inconclusive: 26.4 µM [cytotoxic, partial curve].

Q: With COC[C@H](NC(=O)c1cnc(C)s1)C(=O)N[C@@H](COC)C(=O)N[C@@H](Cc1ccccc1)C(=O)[C@@]1(C)CO1 as the molecule, how does the Potency read?
A: Its Potency is active: 0.0833 µM.

Q: With CCN(CC)CCCC(C)Nc1nc(C)cc(Nc2ccc3nc(C)cc(N)c3c2)n1 (stereo not given) as the molecule, how does the Potency read?
A: Its Potency is “inactive”.

Q: With CC(=O)O[C@H]1C[C@@H]2CC[C@H]3[C@H]4C[C@H]([N+]5(C)CCCCC5)[C@@H](OC(C)=O)[C@@]4(C)CC[C@@H]3[C@@]2(C)C[C@H]1[N+]1(C)CCCCC1 as the molecule, how does the Potency read?
A: The Potency was “inactive”.

Q: Which Potency does the source give for CC(C)(C)C(=O)Oc1ccc(S(=O)(=O)Nc2ccccc2C(=O)NCC(=O)O)cc1 here?
A: The Potency was “inactive”.

Q: With Cc1nn(C)c2c1C(c1ccc(C(F)(F)F)cc1)C(C#N)=C(N)O2 (stereo not given) as the molecule, how does the Potency read?
A: The Potency was inconclusive: 23.4 µM [cytotoxic, partial curve].

Q: For Clc1ccc(COC(Cn2ccnc2)c2ccc(Cl)cc2Cl)cc1 (stereo not given), which Potency is on record?
A: The Potency was “inactive”.
